Test results published in patent publication US20020102245.
No signal at the amounts used counts as a negative.

Biological target: p53 (wild-type) (UniProt P04637)
Test: activity in cells
Conditions: protein in cells, protein details: expressed from pCEP4 in SW480 cells, only the site is given

Sequence | activity on this sequence (p53-dependent activation completely abrogated, SW480 luciferase reporter) | activity on this sequence (luciferase reporter with minimal E1B promoter, SW480, 2-3 copies gave more activation than 13 consensus copies of PG13-luc)
CCTGTAGAATTATCCCAGAAATTTCCCTACTCCGTAC / GGAGTAGGGAAATTTCTGGGATAATTCTACAGGGTAC [BDS-2* (altered at critical p53-binding residues)] | not active | 
CCTGTAGCATTAGCCCAGACATGTCCCTACTCCGTAC / GGAGTAGGGACATGTCTGGGCTAATGCTACAGGGTAC [BDS-2 (14-3-3sigma p53 site, 37 bp, multimerized)] |  | active
